The whole screen tested about 340,000 compounds, of which about 6,200 (1.8%) were called active. Inconclusive means that the source gave no clear call. Such entries were picked first, then a sample of the others. The call rests on the fitted dose curve; in most records, active means well fitted activation curve with a large enough effect; inconclusive means small, poorly fitted or top-dose-only effect; inactive means no such curve, though single readings can be large or run the other way. Potencies of inconclusive entries are doubtful fits and often do not repeat.
test: A quantitative high throughput screen for small molecules that induce DNA re-replication in SW480 colon adenocarcinoma cells.; further: nearly all actives have a fitted effect of over 55% in size; on re-replication activation: % of control where 0% means no effect; conditions: Hoechst DNA content imaging, 48 h; re-replication activation: at 46.1 µM (top of the series) unless noted
How it was run: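 Image-based read-out: total Hoechst fluorescence of nuclei (405 nm excitation, 500-530 nm emission), with hits raising the fraction of high-intensity nuclei. SW480 colon cells incubated 48 hr with compounds at 37 C.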
Potency means the concentration at half of the fitted maximal effect.

Structure (SMILES) | Potency | re-replication activation
CC/C=C/C(=O)N1CC2(CC(c3cccc(NC(=O)CCCCC)c3)=NO2)C[C@H]1C(N)=O (stereo partly specified) | inconclusive: 0.103 µM [activator, partial curve, poor fit] | –
Nn1c(=O)[nH]c2ccccc2c1=O | – | inactive: -4.12%
C[n+]1cccc(C(=O)O)c1 | – | inactive: -9.96%
COC(=O)c1cc(S(=O)(=O)N(Cc2ccccc2)C(C)(C)C)c[nH]1 | active: 6.51 µM | –
O=C(CCc1nc2ccccc2c(=O)[nH]1)Nc1ccc(N2CCCCC2)cc1 | – | inactive: 11.3%
NNC(=O)c1cccc(COc2ccccc2Br)c1 | – | inactive: 0.47%
CC(C)Cn1c(CCCNC(=O)c2ccc(F)cc2)nc2ccccc21 | – | inactive: -11.5%
COc1cc(C=C(c2nc3ccccc3s2)c2nc3ccccc3s2)cc(OC)c1O | inconclusive: 7.31 µM [activator, partial curve, poor fit] | –
O=S(=O)(c1ccc(F)cc1)N1CCN(Cc2ccccn2)CC1 | inconclusive: 0.0291 µM [activator, full curve, poor fit] | –
C/C(=N\Nc1nc(-c2ccccn2)nc2ccccc12)c1ccc(F)cc1 | inconclusive: 14.6 µM [activator, partial curve, poor fit] | –
CC(C)c1cccc(C(C)C)c1NC(=O)COc1nncc2ccccc12 | inconclusive: 0.0517 µM [activator, full curve, poor fit] | –
CC(=O)NC(Cc1ccccc1F)C(=O)NC1CCN(C(=O)Nc2ccc(C)cc2)CC1 (stereo unspecified) | inconclusive: 20.6 µM [activator, single point] | –
Cc1ccc(NC(=O)C(=O)NCC2CCCN2S(=O)(=O)c2cccs2)cc1C (stereo unspecified) | – | inactive: -2.26%
COc1oc(C(=O)NC2CCCCC2)c(-c2ccc(Cl)cc2)c1S(=O)(=O)c1ccccc1 | inconclusive: 29.1 µM [activator, single point] | –
COc1ccc(C(=O)NC(C(=O)NCc2ccccc2OC)C(C)C)cc1 (stereo unspecified) | – | inactive: -43.9%
Cc1cccn2cc(-c3cccc(NC(=O)c4cccs4)c3)nc12 | – | inactive: -1.58%
COc1cccc(CN2CCNC(=O)C2CC(=O)N(C)C2CCOCC2)c1OC (stereo unspecified) | – | inactive: -7.19%
COC(=O)c1ccc([N+](=O)[O-])cc1N1C(=O)C2C3CCC(C3)C2C1=O (stereo unspecified) | – | inactive: -12.6%
COc1ccc(N2C(=O)CS(=O)C(c3ccccc3)C2=O)cc1 (stereo unspecified) | – | inactive: 13.6%
Cc1cccc(Oc2cc(NC(=O)Cn3cnc([N+](=O)[O-])n3)cc([N+](=O)[O-])c2)c1 | – | inactive: -2.18%
O=c1cc(CN2CCc3ccccc32)c2ccc(O)cc2o1 | inconclusive: 29.1 µM [activator, single point] | –
COc1ccc(/C=C(/C(=O)NCc2ccccc2)c2ccccc2)cc1 | inconclusive: 16.4 µM [activator, single point] | –
CN(C)CCNC(=O)c1ccc2c(=O)n(Cc3ccc(Cl)cc3)c(=S)[nH]c2c1 | active: 23.1 µM | –
CC(C)[C@H](Nc1ccc(S(=O)(=O)N2CCOCC2)cc1[N+](=O)[O-])C(=O)OCC(N)=O | inconclusive: 32.6 µM [activator, single point] | –

Some values from the list.
Entry of CC/C=C/C(=O)N1CC2(CC(c3cccc(NC(=O)CCCCC)c3)=NO2)C[C@H]1C(N)=O (stereo partly specified) under Potency: inconclusive: 0.103 µM [activator, partial curve, poor fit]
Entry of Nn1c(=O)[nH]c2ccccc2c1=O under re-replication activation: inactive: -4.12%

The list continues.

Structure (SMILES) | Potency | re-replication activation
Fc1ccc(-c2cn3cc(C(F)(F)F)cc(Cl)c3n2)cc1 | inconclusive: 32.6 µM [activator, partial curve, poor fit] | –
O=[N+]([O-])c1cc2c(cc1[N+](=O)[O-])OCCOCCOCCOCCO2 | inconclusive: 29.1 µM [activator, single point] | –
CC(O)CNc1nc(N)[nH]c(=O)c1N=Nc1ccccc1 (stereo unspecified) | – | inactive: -0.528%
CC(C)(C)[C@H]1C=C(C(=O)N2CCN(Cc3ccc4c(c3)OCO4)CC2)O[C@@H](OCc2ccc(CO)cc2)C1 | – | inactive: -13.8%
CCCCC(=O)Nc1cc(NC(=O)CC)ccc1Cl | inconclusive: 1.16 µM [activator, partial curve, poor fit] | –
CC1CCCC(C)N1CCCNC(=O)c1nn(C)c2c1CSc1ccccc1-2 (stereo unspecified) | inconclusive: 23.1 µM [activator, single point] | –
CCOc1ccc(C(=O)CCC(=O)Nc2cccc(S(=O)(=O)N3CCCCC3)c2)cc1 | – | inactive: -5%
O=C(Nc1cccc(-c2cccc(F)c2)c1)C1CCN(Cc2ccc(CO)o2)CC1 | active: 16.4 µM | –
CC1=NN(C(=O)c2ccccc2C)C(O)(c2ccc(Cl)cc2)C1 (stereo unspecified) | inconclusive: 29.1 µM [activator, single point] | –
Cc1ccc([C@H]2C(C(=O)O)=CC[C@@H](c3ccc(Cl)cc3)N2S(=O)(=O)c2ccccc2C)cc1 | – | inactive: -5.74%
CCCc1cc(=O)[nH]c(SCC(=O)OCc2ccccc2)n1 | inconclusive: 0.0058 µM [activator, full curve, poor fit] | –
COC1CCN(Cc2cn(Cc3ccccc3)nc2-c2cc3ccccc3o2)CC1 | inconclusive: 10.3 µM [activator, partial curve] | –
CCOc1cccc(NC(=O)C2CC(=O)N(C)C(=Nc3cccc(F)c3)S2)c1 (stereo unspecified) | – | inactive: -1.09%
CCOP(=O)(c1ccccc1)c1nc(-c2ccccc2Cl)oc1N1CCCCC1 (stereo unspecified) | inconclusive: 29.1 µM [activator, single point] | –
O=C(CN1C2=NCCN2c2ccccc21)c1ccc2c(c1)OCO2 | – | inactive: 26.1%
Cc1cccc(C)c1NC(=O)C1c2ccccc2Oc2ccccc21 | – | inactive: 3.9%
O=C(CN1C(=O)NC2(CCCC2)C1=O)Nc1cc(Cl)ccc1N1CCCC1 | inconclusive: 29.1 µM [activator, single point] | –
O=C(c1cccc(N2C(=O)C3CC=CCC3C2=O)c1)N1CCCCCC1 (stereo unspecified) | – | inactive: -1.58%
CCC(C)N1C(=O)S/C(=C/c2ccc3c(c2)n(C)c(=O)n3C)C1=O (stereo unspecified) | inconclusive: 20.6 µM [activator, single point] | –
CCOC(=O)c1sc2nc(-c3ccccc3)ccc2c1N | inconclusive: 7.31 µM [activator, partial curve] | –
CCSc1nc2c(c(=O)[nH]c(=O)n2C)n1C/C=C(/C)Cl | – | inactive: -0.0929%
O=C(Nc1nc2ccccc2n1CCN1CCCCC1)C1CCCCC1 | – | inactive: -4.36%
CC1CCc2[nH]c3ccc(C(=O)NCC4CCCO4)cc3c2C1 (stereo unspecified) | inconclusive: 3.66 µM [activator, partial curve, poor fit] | –
CNc1nc(SCC(=O)Nc2ccc(Cl)c(Cl)c2)nc(N2CCOCC2)n1 | inconclusive: 0.0291 µM [activator, full curve, poor fit] | –

Part of the list above, comma-delimited.
Structure (SMILES),Potency,re-replication activation
COC(=O)c1ccc([N+](=O)[O-])cc1N1C(=O)C2C3CCC(C3)C2C1=O (stereo unspecified),–,inactive: -12.6%
COc1ccc(N2C(=O)CS(=O)C(c3ccccc3)C2=O)cc1 (stereo unspecified),–,inactive: 13.6%

Further structures follow:

Structure (SMILES) | Potency | re-replication activation
CC1(C)Cc2ccccc2C(/C(=N/O)C(N)=O)=N1 | inconclusive: 32.6 µM [activator, single point] | –
COc1ccc(NC(=O)C2CCCN(S(=O)(=O)c3ccc(-n4cnnn4)cc3)C2)cc1 (stereo unspecified) | inconclusive: 29.1 µM [activator, partial curve, poor fit] | –
Cc1ccc(C(=O)Nc2ccc(Br)c(C(F)(F)F)c2)cc1 | inconclusive: 18.4 µM [activator, single point] | –
COCCn1c(CN2CCN(C)CC2)nc2c1c(=O)n(C)c(=O)n2C | inconclusive: 6.51 µM [activator, partial curve, poor fit] | –
C/C=C/c1ccc(OCC(=O)Nc2ccc(OC)c(OC)c2)c(OC)c1 | inconclusive: 1.16 µM [activator, full curve, poor fit] | –
O=C1c2cccc3cccc(c23)C(=O)N1Cc1cccnc1 | – | inactive: -14.9%
CSCCC(NC(=O)c1ccc(Cl)cc1Cl)C(=O)NNC(=O)c1ccncc1 (stereo unspecified) | – | inactive: -0.554%
Cc1cc(C)c(NC(=S)N(CCN(C)C)C(C)c2cccnc2)c(C)c1 (stereo unspecified) | – | inactive: -3.5%
Cc1cccn2c(=O)c3cc(C(=O)NCc4ccccc4)c(=N)n(CCCN4CCOCC4)c3nc12 | active: 5.17 µM | –
C#CCSc1nnc(-c2ccc(OC)cc2)o1 | inconclusive: 18.4 µM [activator, partial curve] | –
COc1ccc2cc(C(=O)C3CCCN(C(=O)c4ccnn4C)C3)ccc2c1 (stereo unspecified) | inconclusive: 20.6 µM [activator, single point] | –
C=C(C)c1cccc(C(C)(C)NC(=O)Nc2ccc(C(C)=O)cc2)c1 | inconclusive: 0.0052 µM [activator, full curve, poor fit] | –
CC(C)CNC(=O)c1cccc(NC(=O)Cc2ccc(Br)cc2)c1 | active: 1.46 µM | –
NC(=O)C(=O)N/N=C/c1ccc([N+](=O)[O-])o1 | inconclusive: 33.5 µM [activator, partial curve, poor fit] | –
CCCC1CCc2c(sc(NC(=O)c3cccs3)c2C(N)=O)C1 (stereo unspecified) | inconclusive: 29.1 µM [activator, single point] | –
O=C(Nc1nc2c(F)cc(F)cc2s1)c1ccc([N+](=O)[O-])o1 | active: 9.2 µM | –
Cc1nn(-c2cc(C(F)(F)F)ccc2Cl)c2nc(C(Cl)(Cl)Cl)[nH]c(=O)c12 | – | inactive: 7.11%
CCOc1ccc(NC(=O)CCc2nnc3ccc(N4CCC(C)CC4)nn23)cc1 | inconclusive: 2.31 µM [activator, partial curve] | –
CCOC(=O)N1CCN(Cc2nc3cc(NC(=O)CC(C)C)ccc3n2CC)CC1 | inconclusive: 29.1 µM [activator, single point] | –
FC(F)(F)c1cnc(N2CCN(C(=S)NCc3ccccc3)CC2)c(Cl)c1 | inconclusive: 25.9 µM [activator, single point] | –
O=C(CC(n1cncn1)C(Cl)(Cl)Cl)c1ccc([N+](=O)[O-])cc1 (stereo unspecified) | inconclusive: 14.6 µM [activator, partial curve, poor fit] | –
O=C(COc1ccccc1)NCC(=O)N/N=C/c1cc(Br)ccc1OCc1ccccc1 | inconclusive: 29.1 µM [activator, single point] | –
O=C(c1cccc(F)c1)N1CCN(C(=O)c2nn3cccnc3c2Cl)CC1 | inconclusive: 0.411 µM [activator, full curve, poor fit] | –
